Where a chain is given by its changes, count along the chain named.
B1: 72A 73P 74V (protein, listed as Rattus norvegicus)
chain: AFDGTWKVDRNENYEKFMEKMGINVVKRKLGAHDNLKLTITQEGNKFTVKESSNFRNIDVVFELGVDFAYSAPVGTELTGTWTMEGNKLVGKFKRVDNGKELIAVREISGNELIQTYTYEGVEAKRIFKKE
modifications: PEPTIDE (1)...(131) wild-type rat intestinal fatty acid binding protein
B2: 74T 72A 73F (protein, listed as Rattus norvegicus)
chain: B1 chain with P73F, V74T
modifications: PEPTIDE (1)...(131) wild-type rat intestinal fatty acid binding protein
B3: 18V 31A 55W 73W 72A (protein, listed as Rattus norvegicus)
chain: B1 chain with M18V, G31A, F55W, P73W, V74D
modifications: PEPTIDE (1)...(131) wild-type rat intestinal fatty acid binding protein
B4: 18I 31Y 73V 72A (protein, listed as Rattus norvegicus)
chain: B1 chain with M18I, G31Y, P73V, V74D
modifications: PEPTIDE (1)...(131) wild-type rat intestinal fatty acid binding protein
B5: 72G 73F 74E (protein, listed as Rattus norvegicus)
chain: B1 chain with A72G, P73F, V74E
modifications: PEPTIDE (1)...(131) wild-type rat intestinal fatty acid binding protein
B6: 18V 31A 73F 72A (protein, listed as Rattus norvegicus)
chain: B1 chain with M18V, G31A, P73F, V74D
modifications: PEPTIDE (1)...(131) wild-type rat intestinal fatty acid binding protein
B7: 18V 31F 73M 72A (protein, listed as Rattus norvegicus)
chain: B1 chain with M18V, G31F, P73M, V74D
modifications: PEPTIDE (1)...(131) wild-type rat intestinal fatty acid binding protein
B8: 18I 31A 73F 72A (protein, listed as Rattus norvegicus)
chain: B1 chain with M18I, G31A, P73F, V74D
modifications: PEPTIDE (1)...(131) wild-type rat intestinal fatty acid binding protein
B9: 74S 72A 73F (protein, listed as Rattus norvegicus)
chain: B1 chain with P73F, V74S
modifications: PEPTIDE (1)...(131) wild-type rat intestinal fatty acid binding protein
B10: 72A 73W 74A (protein, listed as Rattus norvegicus)
chain: B1 chain with P73W, V74A
modifications: PEPTIDE (1)...(131) wild-type rat intestinal fatty acid binding protein
B11: 73P 72A 74F (protein, listed as Rattus norvegicus)
chain: B1 chain with V74F
modifications: PEPTIDE (1)...(131) wild-type rat intestinal fatty acid binding protein
B12: 18I 31I 55M 73I 72A (protein, listed as Rattus norvegicus)
chain: B1 chain with M18I, G31I, F55M, P73I, V74D
modifications: PEPTIDE (1)...(131) wild-type rat intestinal fatty acid binding protein
B13: 73F 72A (protein, listed as Rattus norvegicus)
chain: B1 chain with P73F, V74D
modifications: PEPTIDE (1)...(131) wild-type rat intestinal fatty acid binding protein
B14: 38Y 62W 117A 72A (protein, listed as Rattus norvegicus)
chain: B1 chain with L38Y, F62W, P73A, V74D, Y117A
modifications: PEPTIDE (1)...(131) wild-type rat intestinal fatty acid binding protein
B15: 72V 73W 74N (protein, listed as Rattus norvegicus)
chain: B1 chain with A72V, P73W, V74N
modifications: PEPTIDE (1)...(131) wild-type rat intestinal fatty acid binding protein
B16: 38I 74F 72A (protein, listed as Rattus norvegicus)
chain: B1 chain with L38I, P73A, V74F
modifications: PEPTIDE (1)...(131) wild-type rat intestinal fatty acid binding protein
B17: 55V 73F 72A (protein, listed as Rattus norvegicus)
chain: B1 chain with F55V, P73F, V74D
modifications: PEPTIDE (1)...(131) wild-type rat intestinal fatty acid binding protein
B18: 74E 72A 73F (protein, listed as Rattus norvegicus)
chain: B1 chain with P73F, V74E
modifications: PEPTIDE (1)...(131) wild-type rat intestinal fatty acid binding protein
B19: 21Y, 72A (protein, listed as Rattus norvegicus)
chain: B1 chain with M21Y, P73A, V74D
modifications: PEPTIDE (1)...(131) wild-type rat intestinal fatty acid binding protein
B20: 72T 73V 74A (protein, listed as Rattus norvegicus)
chain: B1 chain with A72T, P73V, V74A
modifications: PEPTIDE (1)...(131) wild-type rat intestinal fatty acid binding protein
B21: 72S 73W 74G (protein, listed as Rattus norvegicus)
chain: B1 chain with A72S, P73W, V74G
modifications: PEPTIDE (1)...(131) wild-type rat intestinal fatty acid binding protein
B22: 73T 72A 74F (protein, listed as Rattus norvegicus)
chain: B1 chain with P73T, V74F
modifications: PEPTIDE (1)...(131) wild-type rat intestinal fatty acid binding protein
B23: 72S 73Q 74A (protein, listed as Rattus norvegicus)
chain: B1 chain with A72S, P73Q, V74A
modifications: PEPTIDE (1)...(131) wild-type rat intestinal fatty acid binding protein
B24: 18I 31I 55M 73V 72A (protein, listed as Rattus norvegicus)
chain: B1 chain with M18I, G31I, F55M, P73V, V74D
modifications: PEPTIDE (1)...(131) wild-type rat intestinal fatty acid binding protein
B25: 72V 73W 74S (protein, listed as Rattus norvegicus)
chain: B1 chain with A72V, P73W, V74S
modifications: PEPTIDE (1)...(131) wild-type rat intestinal fatty acid binding protein
B26: 72A 73W 74V (protein, listed as Rattus norvegicus)
chain: B1 chain with P73W
modifications: PEPTIDE (1)...(131) wild-type rat intestinal fatty acid binding protein
B27: 18I 31V 73G 72A (protein, listed as Rattus norvegicus)
chain: B1 chain with M18I, G31V, P73G, V74D
modifications: PEPTIDE (1)...(131) wild-type rat intestinal fatty acid binding protein
B28: 18V 31F 55L 72A (protein, listed as Rattus norvegicus)
chain: B1 chain with M18V, G31F, F55L, P73A, V74D
modifications: PEPTIDE (1)...(131) wild-type rat intestinal fatty acid binding protein
B29: 14Q 18L 31A 73W 117V 72A (protein, listed as Rattus norvegicus)
chain: B1 chain with Y14Q, M18L, G31A, P73W, V74D, Y117V
modifications: PEPTIDE (1)...(131) wild-type rat intestinal fatty acid binding protein
B30: 72G 73F 74N (protein, listed as Rattus norvegicus)
chain: B1 chain with A72G, P73F, V74N
modifications: PEPTIDE (1)...(131) wild-type rat intestinal fatty acid binding protein
B31: 72I 73W 74N (protein, listed as Rattus norvegicus)
chain: B1 chain with A72I, P73W, V74N
modifications: PEPTIDE (1)...(131) wild-type rat intestinal fatty acid binding protein
B32: 18V 31A 73W 72A (protein, listed as Rattus norvegicus)
chain: B1 chain with M18V, G31A, P73W, V74D
modifications: PEPTIDE (1)...(131) wild-type rat intestinal fatty acid binding protein
B33: 18I 31L 55L 72A (protein, listed as Rattus norvegicus)
chain: B1 chain with M18I, G31L, F55L, P73A, V74D
modifications: PEPTIDE (1)...(131) wild-type rat intestinal fatty acid binding protein

test: Baseline fluorescence ratio Ro of probe in absence of analyte; details: baseline fluorescence ratio of probe

Molecule	Ro
B1	0.377
B2	0.181
B3	0.344
B4	0.365
B5	0.381
B6	0.308
B7	0.314
B8	0.330
B9	0.230
B10	0.268
B11	0.265
B12	0.391
B13	0.299
B14	0.554
B15	0.207
B16	0.276
B17	0.328

Molecule	Ro
B18	0.259
B19	0.432
B20	0.242
B21	0.321
B22	0.300
B23	0.295
B24	0.362
B25	0.270
B26	0.393
B27	0.360
B28	0.303
B29	0.334
B30	0.513
B31	0.229
B32	0.352
B33	0.318

same assay, conditions: baseline fluorescence ratio of probe, no fatty acid

Molecule	Ro
B1	0.377
B2	0.181
B4	0.365
B6	0.308
B8	0.330
B9	0.230
B10	0.268
B13	0.299
B14	0.554
B15	0.207
B16	0.276
B17	0.328
B18	0.259
B21	0.321
B22	0.300
B25	0.270
B26	0.393
B29	0.334
B30	0.513
B31	0.229
